{"sequences": {"note": "Chains of the proteins cited; added tags and fusions are not shown. Lines headed by an entry give the natural chain unless they say otherwise; changes in a name come on top. Residues count along the entry.", "UniProt P11087, residues 168-1181": "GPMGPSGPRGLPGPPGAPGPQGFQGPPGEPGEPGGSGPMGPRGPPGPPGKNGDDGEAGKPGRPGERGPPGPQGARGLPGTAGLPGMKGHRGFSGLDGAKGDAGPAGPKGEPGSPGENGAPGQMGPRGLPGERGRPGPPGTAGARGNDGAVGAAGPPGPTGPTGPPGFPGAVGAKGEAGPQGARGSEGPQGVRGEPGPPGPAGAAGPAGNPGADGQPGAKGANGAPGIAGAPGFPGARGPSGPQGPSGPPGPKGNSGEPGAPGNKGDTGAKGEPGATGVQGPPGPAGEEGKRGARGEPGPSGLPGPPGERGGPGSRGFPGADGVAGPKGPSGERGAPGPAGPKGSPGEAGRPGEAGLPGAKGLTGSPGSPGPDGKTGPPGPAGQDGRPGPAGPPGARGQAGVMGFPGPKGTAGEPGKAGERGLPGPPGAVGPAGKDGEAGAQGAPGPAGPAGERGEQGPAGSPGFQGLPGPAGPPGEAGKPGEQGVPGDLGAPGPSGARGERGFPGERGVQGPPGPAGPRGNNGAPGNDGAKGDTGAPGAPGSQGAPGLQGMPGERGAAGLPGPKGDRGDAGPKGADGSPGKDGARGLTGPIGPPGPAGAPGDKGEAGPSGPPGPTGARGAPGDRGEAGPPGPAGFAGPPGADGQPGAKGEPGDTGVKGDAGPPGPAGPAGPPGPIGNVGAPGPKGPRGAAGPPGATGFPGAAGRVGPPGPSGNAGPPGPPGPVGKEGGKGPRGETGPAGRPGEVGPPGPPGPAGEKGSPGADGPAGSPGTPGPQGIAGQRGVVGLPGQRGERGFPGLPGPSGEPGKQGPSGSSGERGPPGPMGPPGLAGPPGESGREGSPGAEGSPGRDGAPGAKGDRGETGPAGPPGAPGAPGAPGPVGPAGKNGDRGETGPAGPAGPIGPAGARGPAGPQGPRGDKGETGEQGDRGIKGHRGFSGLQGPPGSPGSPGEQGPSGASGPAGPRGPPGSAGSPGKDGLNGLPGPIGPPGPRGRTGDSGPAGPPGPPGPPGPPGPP", "UniProt P08123": "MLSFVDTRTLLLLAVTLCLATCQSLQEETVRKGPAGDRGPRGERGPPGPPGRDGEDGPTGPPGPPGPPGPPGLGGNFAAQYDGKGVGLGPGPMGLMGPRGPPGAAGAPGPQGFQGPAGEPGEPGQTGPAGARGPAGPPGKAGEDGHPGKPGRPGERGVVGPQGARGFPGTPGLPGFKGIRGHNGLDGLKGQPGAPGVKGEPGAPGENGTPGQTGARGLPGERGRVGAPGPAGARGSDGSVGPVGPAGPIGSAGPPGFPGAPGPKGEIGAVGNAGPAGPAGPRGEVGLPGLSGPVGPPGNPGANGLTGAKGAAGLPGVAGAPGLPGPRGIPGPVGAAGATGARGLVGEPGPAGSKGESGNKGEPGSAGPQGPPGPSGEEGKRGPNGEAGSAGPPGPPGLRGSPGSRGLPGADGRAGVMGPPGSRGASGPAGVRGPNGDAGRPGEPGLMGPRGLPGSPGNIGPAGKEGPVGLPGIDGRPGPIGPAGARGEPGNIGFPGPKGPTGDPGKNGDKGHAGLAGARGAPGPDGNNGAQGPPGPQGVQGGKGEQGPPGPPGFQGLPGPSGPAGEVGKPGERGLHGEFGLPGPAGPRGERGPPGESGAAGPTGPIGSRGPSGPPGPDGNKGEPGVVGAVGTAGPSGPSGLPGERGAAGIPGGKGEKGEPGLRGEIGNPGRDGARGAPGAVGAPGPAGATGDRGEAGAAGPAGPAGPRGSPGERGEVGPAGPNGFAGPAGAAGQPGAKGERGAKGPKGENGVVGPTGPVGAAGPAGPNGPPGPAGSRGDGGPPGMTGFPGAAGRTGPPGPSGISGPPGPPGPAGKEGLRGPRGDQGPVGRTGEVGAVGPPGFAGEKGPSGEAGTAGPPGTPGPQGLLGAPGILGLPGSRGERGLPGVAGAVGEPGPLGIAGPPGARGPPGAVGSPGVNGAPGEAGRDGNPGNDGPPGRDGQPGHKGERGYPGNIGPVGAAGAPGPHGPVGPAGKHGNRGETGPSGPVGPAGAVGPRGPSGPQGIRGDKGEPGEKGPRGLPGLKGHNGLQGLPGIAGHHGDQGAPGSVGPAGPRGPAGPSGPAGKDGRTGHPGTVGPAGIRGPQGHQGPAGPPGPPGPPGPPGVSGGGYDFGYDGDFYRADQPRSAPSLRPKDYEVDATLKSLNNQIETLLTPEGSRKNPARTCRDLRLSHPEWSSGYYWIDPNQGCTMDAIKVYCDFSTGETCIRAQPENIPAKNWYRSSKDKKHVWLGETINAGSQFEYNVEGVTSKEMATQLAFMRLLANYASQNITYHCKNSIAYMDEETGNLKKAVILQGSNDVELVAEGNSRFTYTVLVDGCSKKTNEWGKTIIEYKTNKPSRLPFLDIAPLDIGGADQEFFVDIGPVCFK"}, "source": "patent US20030087315A1", "about": "(MCP HAHNEMANN UNIVERSITY, published 2003)", "key": {"[1]": {"target": "T1, α1(I) chain of type I collagen (mouse, UniProt P11087 168-1181, limits assumed)", "T1 construct": "Denatured chain on a nitrocellulose filter; pepsin-treated collagen; also called α1 chain", "experiment": "electroblot assay, FIG. 5D"}, "[2]": {"target": "T1, α1(I) chain of type I collagen", "experiment": "filter binding assay, electroblotted chains"}}, "note": "These are yes or no findings as the source states them, for the method shown. Some entries that bind do so weakly or less than the wild type. No end group written: not given here. *: point of attachment. Biotin = O=C1N[C@H]2[C@H](CS[C@H]2CCCCC(=O)*)N1", "data": [{"binder": "Biotin-QYDGKGVGLGP (peptide, UniProt P08123 80-90, looked up, domain: N-telopeptide; also called biotinylated α2 N-telopeptide)", "note": "[biotinylated N-telopeptide of α2 chain of human type I collagen]", "values": [{"measurement": "binding", "setting": "[1]", "value": "binds"}, {"measurement": "binding", "setting": "[2]", "value": "binds"}]}]}
